Measurements reported in the supplement of paper PMC11006884.
What follows is the remainder of the data, with few or none of the targets with a hit. Single values of this set are uncertain. Only a part is listed here, and it is no random draw.

Amino acid sequences for entries named in this document (tags omitted). A change or cut given only in a name is not applied to a line headed by its entry.
UniProt O75131: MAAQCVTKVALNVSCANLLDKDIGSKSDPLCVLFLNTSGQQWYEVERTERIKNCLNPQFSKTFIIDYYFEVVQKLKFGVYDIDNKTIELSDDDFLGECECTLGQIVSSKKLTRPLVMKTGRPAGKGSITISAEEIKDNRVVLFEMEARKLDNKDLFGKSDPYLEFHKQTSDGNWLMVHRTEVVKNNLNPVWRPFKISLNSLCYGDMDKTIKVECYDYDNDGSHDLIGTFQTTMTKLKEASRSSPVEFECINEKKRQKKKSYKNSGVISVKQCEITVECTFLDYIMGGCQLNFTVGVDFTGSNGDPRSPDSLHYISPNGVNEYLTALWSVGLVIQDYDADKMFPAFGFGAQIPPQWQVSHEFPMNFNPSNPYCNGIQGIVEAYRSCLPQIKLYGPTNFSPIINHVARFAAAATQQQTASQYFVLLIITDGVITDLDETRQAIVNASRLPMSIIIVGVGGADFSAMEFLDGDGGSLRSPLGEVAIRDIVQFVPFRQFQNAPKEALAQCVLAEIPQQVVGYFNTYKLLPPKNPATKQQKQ
UniProt O75582, whole entry, looked up: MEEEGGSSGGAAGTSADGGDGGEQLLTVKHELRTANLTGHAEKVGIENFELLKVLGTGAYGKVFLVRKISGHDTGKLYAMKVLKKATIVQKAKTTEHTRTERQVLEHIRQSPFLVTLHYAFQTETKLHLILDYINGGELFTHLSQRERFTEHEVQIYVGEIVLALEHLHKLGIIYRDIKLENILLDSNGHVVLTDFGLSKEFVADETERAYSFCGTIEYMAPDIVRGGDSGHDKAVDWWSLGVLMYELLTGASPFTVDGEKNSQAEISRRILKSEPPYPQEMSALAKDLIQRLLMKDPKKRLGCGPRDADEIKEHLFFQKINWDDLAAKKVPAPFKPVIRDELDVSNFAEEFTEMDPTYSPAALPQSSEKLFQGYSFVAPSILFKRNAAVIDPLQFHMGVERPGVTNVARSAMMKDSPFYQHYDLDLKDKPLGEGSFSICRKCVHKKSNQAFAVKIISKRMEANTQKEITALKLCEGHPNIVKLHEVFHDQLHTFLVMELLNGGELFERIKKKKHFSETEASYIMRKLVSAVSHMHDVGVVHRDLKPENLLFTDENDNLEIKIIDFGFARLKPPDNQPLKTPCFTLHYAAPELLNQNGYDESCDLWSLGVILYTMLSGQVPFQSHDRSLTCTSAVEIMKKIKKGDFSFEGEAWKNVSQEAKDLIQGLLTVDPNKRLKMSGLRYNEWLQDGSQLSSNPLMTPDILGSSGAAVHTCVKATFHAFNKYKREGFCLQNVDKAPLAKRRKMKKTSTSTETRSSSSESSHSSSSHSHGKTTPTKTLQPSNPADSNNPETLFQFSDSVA
UniProt O75150, whole entry, looked up: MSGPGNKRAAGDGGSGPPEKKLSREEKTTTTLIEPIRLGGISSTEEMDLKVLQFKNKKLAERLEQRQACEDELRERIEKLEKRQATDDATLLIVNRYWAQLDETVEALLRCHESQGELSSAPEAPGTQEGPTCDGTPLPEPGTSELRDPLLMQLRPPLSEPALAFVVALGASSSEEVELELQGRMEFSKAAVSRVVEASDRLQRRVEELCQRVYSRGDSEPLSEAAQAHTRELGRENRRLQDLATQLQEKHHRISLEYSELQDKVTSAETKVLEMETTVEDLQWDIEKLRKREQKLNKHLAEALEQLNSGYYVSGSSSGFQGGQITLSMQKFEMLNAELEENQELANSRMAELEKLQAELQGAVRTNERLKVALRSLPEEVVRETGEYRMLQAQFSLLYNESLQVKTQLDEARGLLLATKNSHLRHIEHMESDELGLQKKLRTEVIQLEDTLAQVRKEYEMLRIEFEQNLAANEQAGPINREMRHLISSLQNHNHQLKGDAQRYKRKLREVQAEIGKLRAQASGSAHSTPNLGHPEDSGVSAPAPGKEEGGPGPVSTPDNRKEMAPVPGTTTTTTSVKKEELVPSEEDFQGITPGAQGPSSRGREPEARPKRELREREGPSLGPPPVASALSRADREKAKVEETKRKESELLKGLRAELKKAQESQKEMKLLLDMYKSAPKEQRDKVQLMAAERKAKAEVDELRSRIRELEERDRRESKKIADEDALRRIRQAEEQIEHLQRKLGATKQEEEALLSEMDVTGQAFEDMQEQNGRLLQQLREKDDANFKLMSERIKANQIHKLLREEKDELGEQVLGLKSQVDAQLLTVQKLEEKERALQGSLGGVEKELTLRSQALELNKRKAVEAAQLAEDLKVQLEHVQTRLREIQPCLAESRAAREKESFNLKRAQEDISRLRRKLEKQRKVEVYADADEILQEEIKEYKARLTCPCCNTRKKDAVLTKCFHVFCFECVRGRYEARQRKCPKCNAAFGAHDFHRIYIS
UniProt O75533, whole entry, looked up: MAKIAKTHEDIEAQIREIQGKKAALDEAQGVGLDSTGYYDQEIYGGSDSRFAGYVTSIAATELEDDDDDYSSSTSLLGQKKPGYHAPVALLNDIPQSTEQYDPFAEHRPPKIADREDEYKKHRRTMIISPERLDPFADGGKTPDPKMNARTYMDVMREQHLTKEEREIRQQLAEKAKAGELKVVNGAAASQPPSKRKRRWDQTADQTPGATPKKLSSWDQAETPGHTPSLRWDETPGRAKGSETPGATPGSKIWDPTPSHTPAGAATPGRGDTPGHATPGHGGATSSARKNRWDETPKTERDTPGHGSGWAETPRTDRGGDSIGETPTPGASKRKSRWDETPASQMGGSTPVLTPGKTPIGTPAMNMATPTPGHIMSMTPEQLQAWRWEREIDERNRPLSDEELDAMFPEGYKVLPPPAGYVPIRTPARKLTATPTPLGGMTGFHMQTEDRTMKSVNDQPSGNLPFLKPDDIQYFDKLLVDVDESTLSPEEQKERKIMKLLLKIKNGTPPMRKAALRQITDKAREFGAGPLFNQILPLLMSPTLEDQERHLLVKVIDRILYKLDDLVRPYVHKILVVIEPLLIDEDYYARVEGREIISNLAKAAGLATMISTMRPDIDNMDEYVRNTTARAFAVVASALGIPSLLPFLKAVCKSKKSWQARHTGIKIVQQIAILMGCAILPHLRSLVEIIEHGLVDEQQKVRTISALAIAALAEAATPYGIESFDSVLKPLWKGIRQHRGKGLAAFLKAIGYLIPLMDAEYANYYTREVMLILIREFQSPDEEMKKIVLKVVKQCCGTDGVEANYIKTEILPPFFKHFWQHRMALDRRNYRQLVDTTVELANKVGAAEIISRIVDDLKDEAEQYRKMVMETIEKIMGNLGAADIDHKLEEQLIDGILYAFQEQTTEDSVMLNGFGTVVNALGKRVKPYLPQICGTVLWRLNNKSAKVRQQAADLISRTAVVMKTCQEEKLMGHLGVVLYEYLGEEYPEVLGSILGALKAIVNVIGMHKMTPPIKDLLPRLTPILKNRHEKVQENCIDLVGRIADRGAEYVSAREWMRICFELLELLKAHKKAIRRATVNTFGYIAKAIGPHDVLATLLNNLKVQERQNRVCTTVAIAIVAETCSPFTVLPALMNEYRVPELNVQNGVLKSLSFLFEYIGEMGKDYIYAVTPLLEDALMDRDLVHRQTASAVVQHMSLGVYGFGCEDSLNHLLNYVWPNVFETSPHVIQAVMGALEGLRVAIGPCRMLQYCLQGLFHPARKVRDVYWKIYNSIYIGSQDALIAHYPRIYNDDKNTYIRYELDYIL
UniProt O76080: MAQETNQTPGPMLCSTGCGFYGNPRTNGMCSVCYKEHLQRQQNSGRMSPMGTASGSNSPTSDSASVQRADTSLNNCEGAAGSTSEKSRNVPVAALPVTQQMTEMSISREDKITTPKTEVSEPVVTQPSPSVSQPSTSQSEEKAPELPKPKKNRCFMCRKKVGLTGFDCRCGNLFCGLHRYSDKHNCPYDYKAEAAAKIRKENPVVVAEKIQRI
UniProt O75818: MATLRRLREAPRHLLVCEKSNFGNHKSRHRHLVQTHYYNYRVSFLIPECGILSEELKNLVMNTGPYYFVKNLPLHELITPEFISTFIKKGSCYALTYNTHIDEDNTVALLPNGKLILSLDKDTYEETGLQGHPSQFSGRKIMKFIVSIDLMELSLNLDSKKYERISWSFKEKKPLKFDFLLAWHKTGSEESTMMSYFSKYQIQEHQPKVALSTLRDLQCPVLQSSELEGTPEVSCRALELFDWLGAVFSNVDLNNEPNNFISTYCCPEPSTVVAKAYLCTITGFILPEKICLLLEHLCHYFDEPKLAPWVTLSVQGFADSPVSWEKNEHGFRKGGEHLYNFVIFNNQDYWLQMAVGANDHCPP
UniProt O43823: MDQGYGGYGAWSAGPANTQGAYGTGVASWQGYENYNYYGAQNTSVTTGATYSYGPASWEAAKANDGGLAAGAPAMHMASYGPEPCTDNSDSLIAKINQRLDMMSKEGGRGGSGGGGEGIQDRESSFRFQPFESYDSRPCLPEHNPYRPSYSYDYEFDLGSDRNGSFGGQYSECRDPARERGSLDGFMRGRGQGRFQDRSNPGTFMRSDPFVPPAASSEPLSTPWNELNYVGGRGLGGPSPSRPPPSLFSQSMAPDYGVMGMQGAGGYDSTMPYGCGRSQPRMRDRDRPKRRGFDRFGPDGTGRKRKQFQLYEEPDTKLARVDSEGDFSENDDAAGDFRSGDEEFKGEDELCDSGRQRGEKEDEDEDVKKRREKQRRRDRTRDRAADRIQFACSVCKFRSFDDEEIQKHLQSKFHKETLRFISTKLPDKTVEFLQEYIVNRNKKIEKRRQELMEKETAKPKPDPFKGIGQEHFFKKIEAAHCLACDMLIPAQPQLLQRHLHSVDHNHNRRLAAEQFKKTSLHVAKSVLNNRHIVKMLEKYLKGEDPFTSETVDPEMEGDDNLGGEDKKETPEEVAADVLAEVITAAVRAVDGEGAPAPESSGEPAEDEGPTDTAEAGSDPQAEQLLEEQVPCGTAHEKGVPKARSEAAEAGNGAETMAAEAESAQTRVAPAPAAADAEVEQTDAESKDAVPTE
UniProt O75607: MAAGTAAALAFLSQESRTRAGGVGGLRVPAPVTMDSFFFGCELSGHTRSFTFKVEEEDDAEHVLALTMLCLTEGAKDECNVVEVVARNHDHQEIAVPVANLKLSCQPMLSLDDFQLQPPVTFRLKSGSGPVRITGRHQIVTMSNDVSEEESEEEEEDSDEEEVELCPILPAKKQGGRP
UniProt O94761: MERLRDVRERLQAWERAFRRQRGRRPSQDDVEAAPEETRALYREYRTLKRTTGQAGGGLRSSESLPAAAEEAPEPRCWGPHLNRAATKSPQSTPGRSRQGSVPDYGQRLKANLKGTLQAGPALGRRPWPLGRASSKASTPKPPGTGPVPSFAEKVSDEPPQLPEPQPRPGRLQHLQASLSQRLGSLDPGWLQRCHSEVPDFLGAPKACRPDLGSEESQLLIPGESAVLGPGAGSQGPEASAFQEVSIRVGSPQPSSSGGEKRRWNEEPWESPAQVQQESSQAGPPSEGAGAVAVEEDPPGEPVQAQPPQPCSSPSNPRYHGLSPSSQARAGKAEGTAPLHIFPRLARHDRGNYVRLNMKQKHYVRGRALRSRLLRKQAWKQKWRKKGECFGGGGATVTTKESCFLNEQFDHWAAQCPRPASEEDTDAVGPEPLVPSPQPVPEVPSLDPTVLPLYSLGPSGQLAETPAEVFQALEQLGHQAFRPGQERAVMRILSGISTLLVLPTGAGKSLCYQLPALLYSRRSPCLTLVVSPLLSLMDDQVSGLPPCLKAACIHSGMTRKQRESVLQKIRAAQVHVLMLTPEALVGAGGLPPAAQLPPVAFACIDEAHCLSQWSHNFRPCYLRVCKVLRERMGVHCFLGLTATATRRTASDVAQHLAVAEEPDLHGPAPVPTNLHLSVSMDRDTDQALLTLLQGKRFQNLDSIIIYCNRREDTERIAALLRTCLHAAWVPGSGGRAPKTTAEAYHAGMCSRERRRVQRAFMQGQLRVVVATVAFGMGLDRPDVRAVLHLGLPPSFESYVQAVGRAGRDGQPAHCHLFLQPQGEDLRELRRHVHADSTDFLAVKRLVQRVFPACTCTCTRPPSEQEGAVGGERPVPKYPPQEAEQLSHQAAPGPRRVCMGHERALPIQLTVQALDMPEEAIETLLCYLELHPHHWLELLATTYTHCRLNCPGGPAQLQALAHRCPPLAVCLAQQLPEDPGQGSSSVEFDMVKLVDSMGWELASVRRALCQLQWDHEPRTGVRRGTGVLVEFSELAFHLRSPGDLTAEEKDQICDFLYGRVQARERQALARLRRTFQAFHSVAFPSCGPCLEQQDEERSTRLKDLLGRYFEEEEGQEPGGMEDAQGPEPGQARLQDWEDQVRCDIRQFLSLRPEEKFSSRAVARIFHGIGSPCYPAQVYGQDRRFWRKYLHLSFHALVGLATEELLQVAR
UniProt O75663: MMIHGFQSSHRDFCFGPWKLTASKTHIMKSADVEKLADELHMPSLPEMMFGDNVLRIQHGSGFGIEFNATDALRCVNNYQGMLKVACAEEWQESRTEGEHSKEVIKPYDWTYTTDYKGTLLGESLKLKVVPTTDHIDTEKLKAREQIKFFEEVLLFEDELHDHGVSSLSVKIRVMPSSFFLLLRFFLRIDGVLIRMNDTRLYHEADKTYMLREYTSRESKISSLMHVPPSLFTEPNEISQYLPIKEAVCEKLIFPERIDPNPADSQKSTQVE

compound: COC(=O)/C=C/c1ccccc1 [methyl cinnamate]; assay: log2 ratio of iodoacetamide-alkyne labeling of the cysteine site, DMSO over compound (competition); higher = stronger covalent engagement of the cysteine by the compound, active = 1 or more; conditions: 500 µM; treatment time 1 h; system: HEK293T cell lysate
How it was run: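 HEK293T lysate (2 mg/mL) was incubated with electrophile (500 µM) or vehicle for 1 h at ambient temperature and then with iodoacetamide alkyne for 1 h. Labelled proteins were clicked to sCIP-TMT reagents, pooled, digested, enriched on streptavidin and measured by Orbitrap Eclipse LC-MS/MS with FAIMS, with FragPipe quantification. The per-cysteine log2 competition ratio is mean control-channel reporter intensity over mean compound-channel reporter intensity. Across three replicates with duplicate channels, cysteines quantified in only one replicate were excluded.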

log2 ratio of iodoacetamide-alkyne labeling, inactive:
CPNE3 C506 (UniProt O75131) -0.301
TBC1D4 C316 (UniProt O60343) 0.213
UniProt O75582_C214 0.59
UniProt O43776_C438 0.0957
NME6 C167 (UniProt O75414) 0.153
RNF40 C69 (UniProt O75150) 0.235
UniProt O75164_C533 0.293
SF3B1 C677 (UniProt O75533) -0.125
ZFAND5 C76 (UniProt O76080) 0.279
NDUFS6 C87 (UniProt O75380) 0.261
EXOC3 C465 (UniProt O60645) -0.17
UniProt O75582_C714 -0.0411
HNRNPR C240 (UniProt O43390) 0.0339
RPP40 C49 (UniProt O75818) -0.146
AKAP8 C85 (UniProt O43823) 0.281
SF3B1 C1035 (UniProt O75533) 0.13
PLOD3 C494 (UniProt O60568) 0.114
UniProt O75934_C106 0.0549
UniProt O75153_C732 0.245
AKAP8 C139 (UniProt O43823) 0.135
IDH1 C379 (UniProt O75874) 0.31
UniProt O43303_C535 0.165
FLNB C991 (UniProt O75369) -0.00659
NPM3 C70 (UniProt O75607) 0.112
PEX1 C1185 (UniProt O43933) 0.11
LRCH4 C134 (UniProt O75427) 0.0978
RECQL4 C511 (UniProt O94761) 0.229
HTATSF1 C462 (UniProt O43719) 0.449
ANKRD17 C906 (UniProt O75179) 0.344
TIPRL C87 (UniProt O75663) 0.123
NUP155 C704 (UniProt O75694) 0.225
PSMD3 C483 (UniProt O43242) 0.0648
RIPK2 C7 (UniProt O43353) 0.181
KIF1C C198 (UniProt O43896) 0.0911
UTP20 C1757 (UniProt O75691) 0.0427
USO1 C303 (UniProt O60763) 0.319
UGDH C241 (UniProt O60701) 0.24

Nothing new here: an excerpt of the list.
log2 ratio of iodoacetamide-alkyne labeling, inactive:
RPP40 C49 (UniProt O75818) -0.146
AKAP8 C85 (UniProt O43823) 0.281
SF3B1 C1035 (UniProt O75533) 0.13
PLOD3 C494 (UniProt O60568) 0.114
UniProt O75934_C106 0.0549
UniProt O75153_C732 0.245
AKAP8 C139 (UniProt O43823) 0.135
IDH1 C379 (UniProt O75874) 0.31
UniProt O43303_C535 0.165
FLNB C991 (UniProt O75369) -0.00659
NPM3 C70 (UniProt O75607) 0.112
